Test results taken from patent US20210340562.
Construct, isoform or probe ends are uncertain for at least one entry. The comparison behind a weaker result is the experiment's own reference, which may not be listed here. Tags and fusion partners may be left off the protein sequences shown.

Target: T1, R2Bm protein (WT) (UniProt V9H052)
T1 sequence (looked up, limits assumed): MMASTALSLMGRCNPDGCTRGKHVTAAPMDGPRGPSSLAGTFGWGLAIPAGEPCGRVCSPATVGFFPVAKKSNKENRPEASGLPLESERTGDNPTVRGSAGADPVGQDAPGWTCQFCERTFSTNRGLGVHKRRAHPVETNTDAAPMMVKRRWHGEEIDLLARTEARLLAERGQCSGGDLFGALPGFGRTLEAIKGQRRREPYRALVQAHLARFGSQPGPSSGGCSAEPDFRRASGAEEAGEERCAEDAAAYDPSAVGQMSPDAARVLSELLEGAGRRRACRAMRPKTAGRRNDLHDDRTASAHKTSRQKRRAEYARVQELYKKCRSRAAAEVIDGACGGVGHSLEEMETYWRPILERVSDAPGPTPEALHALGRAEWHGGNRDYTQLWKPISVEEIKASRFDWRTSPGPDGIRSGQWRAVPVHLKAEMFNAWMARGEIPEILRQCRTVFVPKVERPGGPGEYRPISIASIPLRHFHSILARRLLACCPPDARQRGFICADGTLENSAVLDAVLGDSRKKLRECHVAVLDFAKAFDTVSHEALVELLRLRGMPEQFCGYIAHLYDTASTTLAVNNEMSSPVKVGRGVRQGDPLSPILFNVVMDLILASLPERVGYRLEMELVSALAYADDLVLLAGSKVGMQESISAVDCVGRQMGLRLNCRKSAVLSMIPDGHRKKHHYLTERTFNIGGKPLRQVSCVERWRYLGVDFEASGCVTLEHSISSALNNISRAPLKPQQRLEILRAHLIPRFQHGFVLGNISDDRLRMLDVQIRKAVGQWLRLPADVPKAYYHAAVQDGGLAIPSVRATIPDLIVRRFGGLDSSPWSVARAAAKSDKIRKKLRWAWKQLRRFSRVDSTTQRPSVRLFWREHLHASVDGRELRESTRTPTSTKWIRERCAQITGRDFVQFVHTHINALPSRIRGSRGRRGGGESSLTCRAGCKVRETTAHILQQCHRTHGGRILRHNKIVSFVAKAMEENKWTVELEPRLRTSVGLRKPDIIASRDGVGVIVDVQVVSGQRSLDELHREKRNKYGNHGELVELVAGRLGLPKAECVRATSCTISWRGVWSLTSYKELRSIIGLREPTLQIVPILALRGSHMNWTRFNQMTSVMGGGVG
Assay: EMSA
Conditions: no RNA, purified recombinant protein, protein details: Talon-resin purified, expressed in BL21 E. coli

Row | Sequence | binding result (similar to junction individually, bound only after junction in competition, label: 5' 32P on b-strand) | binding result (preferred over nonspecific linear DNA in competition (more than two-fold), dIdC competitor, binding greatly inhibited by 5' PBM RNA, label: 5' 32P, folded or branched DNA)
1 | CCTCGAGGGATCCGTCCTAGCAAGCCGCTGCTACCGGAAGCTTCTGGACC (double strand) [nonspecific linear DNA] | binds more weakly | –
2 | CCTCGAGGGATCCGTCCTAGCAAGCCGCTGCTACCGGAAGCTTCTGGACC / GCTCGAGTCTAGACTGCAGTTGAGAGCTTGCTAGGACGGATCCCTCGAGG / GGTCCAGAAGCTTCCGGTAGCAGCGAGAGCGGTGGTTGAATTCCTCGACG / CGTCGAGGAATTCAACCACCGCTCTTCTCAACTGCAGTCTAGACTCGAGC [nonspecific 4-way junction] | – | binds
